Taken from: PubChem BioAssay AID652272 (Drosophila RNAi Screening Center, 2013)
The deposit covers about 21,000 reagents; this is a random part of those with a known target gene and a result. Over the whole deposit, 503 (2.4%) were called active. 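Raw plate light values, not normalised; calls rest on replicate z-scores that were not deposited; hits include reporter decreases as well as increases.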 The record does not give: the amount of reagent, the time to read-out.

Screen: 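Finding fly genes that regulate Hedgehog signal transduction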 (primary screen)
Cell system: Drosophila clone 8 (Cl8) cells
Reagent: long dsRNA against Drosophila genes
Read-out: 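Firefly light from a Hedgehog-responsive ptc promoter reporter and Renilla reference light, both read on a plate reader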
Reading the numbers: firefly Hh reporter signal: higher = more ptc reporter light; Renilla reference signal: higher = more Renilla control light
Hit rule: 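Called a hit if the two-replicate mean z-score lies below -2 or above +3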
Calls: active = hit: reporter lowered or raised; inactive = not a hit

The opening 4 records, ahead of the listing:
| gene knocked down | amplicon | firefly Hh reporter signal, replicate 1 | firefly Hh reporter signal, replicate 2 | firefly Hh reporter signal, replicate 3 | Renilla reference signal, replicate 1 | Renilla reference signal, replicate 2 | call |
| --- | --- | --- | --- | --- | --- | --- | --- |
| jbug | DRSC03952 | 1.24e5 | 2.53e5 | – | 3360 | 11693 | inactive |
| jbug | DRSC04114 | 79629 | 48701 | – | 3436 | 1794 | inactive |
| jbug | DRSC04167 | 1.04e5 | 81632 | – | 2114 | 7049 | inactive |
| jbug | DRSC04388 | 83405 | 67373 | – | 2019 | 5244 | inactive |

Main list, from the start:
| gene knocked down | amplicon | firefly Hh reporter signal, replicate 1 | firefly Hh reporter signal, replicate 2 | firefly Hh reporter signal, replicate 3 | Renilla reference signal, replicate 1 | Renilla reference signal, replicate 2 | call |
| --- | --- | --- | --- | --- | --- | --- | --- |
| jbug | DRSC03952 | 1.24e5 | 2.53e5 | – | 3360 | 11693 | inactive |
| jbug | DRSC04114 | 79629 | 48701 | – | 3436 | 1794 | inactive |
| jbug | DRSC04167 | 1.04e5 | 81632 | – | 2114 | 7049 | inactive |
| jbug | DRSC04388 | 83405 | 67373 | – | 2019 | 5244 | inactive |
| OS9 | DRSC02700 | 70668 | 47970 | – | 2082 | 4912 | inactive |
| Acadvl | DRSC07022 | 1.30e5 | 93298 | – | 6097 | 4412 | inactive |
| CG15333 | DRSC18016 | 69286 | 1.48e5 | – | 2352 | 5885 | inactive |
| CG15333 | DRSC18153 | 74843 | 1.78e5 | – | 2586 | 6640 | inactive |
| CG3803 | DRSC04420 | 92052 | 51108 | – | 2533 | 4105 | inactive |
| CG7322 | DRSC20036 | 68983 | 1.60e5 | – | 1290 | 7675 | inactive |
| CG17572 | DRSC02629 | 64390 | 44459 | – | 1690 | 4610 | inactive |
| Tmtc2 | DRSC00272 | 98842 | 87826 | – | 4825 | 4272 | inactive |
| Rpn13R | DRSC18404 | 76154 | 1.97e5 | – | 2636 | 7287 | inactive |
| FucTB | DRSC02745 | 97799 | 48146 | – | 2695 | 5131 | inactive |
| neo | DRSC16316 | 99479 | 87553 | – | 2384 | 2400 | inactive |
| CG8176 | DRSC16394 | 68262 | 1.10e5 | – | 1707 | 2992 | inactive |
| CG31050 | DRSC13883 | 59956 | 2.23e5 | – | 14354 | 5480 | inactive |
| Taf11 | DRSC03448 | 87536 | 57053 | – | 2436 | 5607 | inactive |
| CG1663 | DRSC06613 | 1.74e5 | 65483 | – | 3528 | 4432 | inactive |
| CG14113 | DRSC10116 | 30729 | 54690 | 47628 | 4864 | 3315 | inactive |
| Mtk | DRSC07475 | 1.35e5 | 83991 | – | 3161 | 5426 | inactive |
| TTLL3B | DRSC02133 | 60107 | 51803 | – | 1773 | 4774 | inactive |
| UQCR-14L | DRSC15288 | 2.26e5 | 1.93e5 | – | 8496 | 6486 | inactive |
| Ote | DRSC07498 | 1.11e5 | 1.05e5 | – | 6131 | 3829 | inactive |
| bi | DRSC18742 | 1.36e5 | 3.02e5 | – | 4709 | 10059 | inactive |
| CG43861 | DRSC02170 | 97335 | 58253 | – | 2528 | 5024 | inactive |
| CG43861 | DRSC02308 | 90800 | 45477 | – | 2279 | 3824 | inactive |
| alpha-Man-Ia | DRSC17642 | 4.13e5 | 1.28e5 | – | 25360 | 3088 | inactive |
| alpha-Man-Ia | DRSC18162 | 62211 | 1.55e5 | – | 1942 | 5847 | inactive |
| alpha-Man-Ia | DRSC18163 | 68912 | 1.44e5 | – | 1776 | 4746 | inactive |
| alpha-Man-Ia | DRSC18735 | 53976 | 1.51e5 | – | 1386 | 4603 | inactive |
| CG30485 | DRSC06376 | 76459 | 74524 | – | 1874 | 5469 | inactive |
| CG33307 | DRSC01349 | 5.37e5 | 1.60e5 | – | 27099 | 7661 | inactive |
| Usp10 | DRSC08282 | 1.17e5 | 1.31e5 | – | 4938 | 4471 | inactive |
| Usp10 | DRSC08373 | 58394 | 42704 | – | 1760 | 3171 | inactive |
| CG5181 | DRSC02825 | 70518 | 69005 | – | 3143 | 3444 | inactive |
| Nca | DRSC11233 | 1.45e5 | 2.23e5 | – | 4418 | 5864 | inactive |
| CG15473 | DRSC18056 | 65062 | 2.38e5 | – | 2282 | 9417 | inactive |
| Ndae1 | DRSC00975 | 4.49e5 | 1.81e5 | – | 21344 | 7603 | inactive |
| Ndae1 | DRSC02770 | 76471 | 57444 | – | 3888 | 2227 | inactive |
